# The list shows a part of the results.
# The chains behind the UniProt entries cited, without tags or fusion partners. Where a name states a change or a piece, a line headed by the entry shows the natural chain unless it says otherwise.
# UniProt Q96A49: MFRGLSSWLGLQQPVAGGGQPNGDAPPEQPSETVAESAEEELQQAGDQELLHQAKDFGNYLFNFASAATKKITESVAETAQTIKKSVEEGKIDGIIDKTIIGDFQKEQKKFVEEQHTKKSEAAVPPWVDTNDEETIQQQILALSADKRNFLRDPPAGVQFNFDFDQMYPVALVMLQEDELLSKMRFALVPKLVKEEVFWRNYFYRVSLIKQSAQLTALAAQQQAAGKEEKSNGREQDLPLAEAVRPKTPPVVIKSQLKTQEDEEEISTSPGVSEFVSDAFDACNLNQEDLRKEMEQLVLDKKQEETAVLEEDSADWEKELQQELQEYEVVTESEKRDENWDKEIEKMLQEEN
# UniProt Q9UH65: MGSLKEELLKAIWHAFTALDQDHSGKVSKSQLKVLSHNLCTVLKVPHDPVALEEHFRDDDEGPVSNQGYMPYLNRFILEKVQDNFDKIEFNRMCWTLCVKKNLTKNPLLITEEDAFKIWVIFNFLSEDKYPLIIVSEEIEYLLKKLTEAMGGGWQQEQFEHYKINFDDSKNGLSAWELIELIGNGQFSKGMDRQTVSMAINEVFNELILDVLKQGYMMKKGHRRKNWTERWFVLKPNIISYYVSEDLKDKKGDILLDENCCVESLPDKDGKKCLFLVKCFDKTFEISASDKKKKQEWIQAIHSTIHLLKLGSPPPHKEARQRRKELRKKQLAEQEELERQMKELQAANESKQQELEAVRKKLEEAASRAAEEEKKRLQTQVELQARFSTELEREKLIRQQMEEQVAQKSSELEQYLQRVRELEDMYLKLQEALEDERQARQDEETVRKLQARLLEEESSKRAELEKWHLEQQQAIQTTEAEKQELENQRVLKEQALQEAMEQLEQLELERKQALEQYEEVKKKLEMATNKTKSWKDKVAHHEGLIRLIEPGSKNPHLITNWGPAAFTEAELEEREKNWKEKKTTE
# UniProt Q96BN2: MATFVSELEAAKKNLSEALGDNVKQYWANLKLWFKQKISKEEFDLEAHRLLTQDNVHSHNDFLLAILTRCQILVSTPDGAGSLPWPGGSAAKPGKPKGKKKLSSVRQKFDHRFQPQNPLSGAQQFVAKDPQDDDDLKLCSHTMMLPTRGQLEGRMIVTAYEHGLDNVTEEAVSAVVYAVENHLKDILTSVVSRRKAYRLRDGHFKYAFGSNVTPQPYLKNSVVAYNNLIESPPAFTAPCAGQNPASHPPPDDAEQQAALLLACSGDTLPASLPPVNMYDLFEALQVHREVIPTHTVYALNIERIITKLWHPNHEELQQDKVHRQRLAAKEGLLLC
# UniProt P27105: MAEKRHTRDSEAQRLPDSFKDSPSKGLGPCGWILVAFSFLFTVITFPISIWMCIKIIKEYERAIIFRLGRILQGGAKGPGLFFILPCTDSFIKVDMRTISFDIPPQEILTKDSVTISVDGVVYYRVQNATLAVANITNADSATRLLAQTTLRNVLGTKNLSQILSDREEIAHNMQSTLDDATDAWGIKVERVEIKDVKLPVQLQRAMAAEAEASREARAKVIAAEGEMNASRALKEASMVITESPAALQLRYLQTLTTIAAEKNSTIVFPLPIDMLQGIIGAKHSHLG
# UniProt Q15750: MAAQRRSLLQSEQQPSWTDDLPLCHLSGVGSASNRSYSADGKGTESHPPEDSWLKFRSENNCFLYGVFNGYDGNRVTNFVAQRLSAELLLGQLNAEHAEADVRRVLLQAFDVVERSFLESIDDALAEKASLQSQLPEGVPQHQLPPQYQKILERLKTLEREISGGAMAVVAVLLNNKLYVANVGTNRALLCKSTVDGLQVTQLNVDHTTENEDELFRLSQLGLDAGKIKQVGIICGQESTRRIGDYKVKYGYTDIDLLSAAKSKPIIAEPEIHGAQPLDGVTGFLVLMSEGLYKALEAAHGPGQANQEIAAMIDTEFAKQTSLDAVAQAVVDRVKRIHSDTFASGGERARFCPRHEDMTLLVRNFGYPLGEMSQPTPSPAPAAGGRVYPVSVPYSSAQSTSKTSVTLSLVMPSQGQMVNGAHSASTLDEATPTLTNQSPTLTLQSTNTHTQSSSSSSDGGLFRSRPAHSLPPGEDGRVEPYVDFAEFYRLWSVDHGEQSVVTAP
# UniProt Q9Y3F4: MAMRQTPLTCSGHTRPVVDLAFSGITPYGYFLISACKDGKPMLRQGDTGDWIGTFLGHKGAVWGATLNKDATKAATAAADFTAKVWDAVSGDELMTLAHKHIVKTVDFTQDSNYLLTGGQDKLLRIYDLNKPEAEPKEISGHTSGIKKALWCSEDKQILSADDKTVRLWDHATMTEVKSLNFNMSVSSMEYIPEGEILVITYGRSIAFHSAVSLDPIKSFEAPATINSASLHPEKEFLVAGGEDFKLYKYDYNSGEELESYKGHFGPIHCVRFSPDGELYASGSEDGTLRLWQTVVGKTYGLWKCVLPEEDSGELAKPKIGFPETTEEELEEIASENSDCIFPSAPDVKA
# UniProt O43752: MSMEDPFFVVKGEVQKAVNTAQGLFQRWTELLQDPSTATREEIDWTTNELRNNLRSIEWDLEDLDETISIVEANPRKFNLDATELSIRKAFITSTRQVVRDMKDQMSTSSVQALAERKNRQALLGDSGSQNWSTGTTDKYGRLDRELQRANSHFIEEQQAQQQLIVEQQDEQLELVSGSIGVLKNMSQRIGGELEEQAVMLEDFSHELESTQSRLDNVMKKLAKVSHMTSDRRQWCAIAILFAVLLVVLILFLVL
# UniProt Q9Y2Z0: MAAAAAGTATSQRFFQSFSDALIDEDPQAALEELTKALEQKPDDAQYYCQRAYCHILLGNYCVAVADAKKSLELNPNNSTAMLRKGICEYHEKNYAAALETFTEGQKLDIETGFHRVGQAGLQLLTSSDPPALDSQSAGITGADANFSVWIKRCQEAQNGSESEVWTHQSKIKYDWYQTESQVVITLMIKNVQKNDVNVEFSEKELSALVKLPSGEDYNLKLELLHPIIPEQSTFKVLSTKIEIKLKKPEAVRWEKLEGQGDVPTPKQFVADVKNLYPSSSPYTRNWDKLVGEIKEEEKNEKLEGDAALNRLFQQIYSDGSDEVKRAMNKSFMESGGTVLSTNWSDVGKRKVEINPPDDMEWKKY
# UniProt Q12846: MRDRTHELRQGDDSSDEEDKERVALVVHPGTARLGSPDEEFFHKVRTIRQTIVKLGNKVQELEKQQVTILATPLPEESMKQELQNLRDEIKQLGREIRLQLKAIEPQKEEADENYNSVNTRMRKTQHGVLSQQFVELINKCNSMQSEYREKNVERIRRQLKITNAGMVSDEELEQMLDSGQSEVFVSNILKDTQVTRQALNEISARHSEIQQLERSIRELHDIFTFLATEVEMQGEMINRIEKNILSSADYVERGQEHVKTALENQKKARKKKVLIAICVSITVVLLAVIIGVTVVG
# UniProt Q8TCJ2: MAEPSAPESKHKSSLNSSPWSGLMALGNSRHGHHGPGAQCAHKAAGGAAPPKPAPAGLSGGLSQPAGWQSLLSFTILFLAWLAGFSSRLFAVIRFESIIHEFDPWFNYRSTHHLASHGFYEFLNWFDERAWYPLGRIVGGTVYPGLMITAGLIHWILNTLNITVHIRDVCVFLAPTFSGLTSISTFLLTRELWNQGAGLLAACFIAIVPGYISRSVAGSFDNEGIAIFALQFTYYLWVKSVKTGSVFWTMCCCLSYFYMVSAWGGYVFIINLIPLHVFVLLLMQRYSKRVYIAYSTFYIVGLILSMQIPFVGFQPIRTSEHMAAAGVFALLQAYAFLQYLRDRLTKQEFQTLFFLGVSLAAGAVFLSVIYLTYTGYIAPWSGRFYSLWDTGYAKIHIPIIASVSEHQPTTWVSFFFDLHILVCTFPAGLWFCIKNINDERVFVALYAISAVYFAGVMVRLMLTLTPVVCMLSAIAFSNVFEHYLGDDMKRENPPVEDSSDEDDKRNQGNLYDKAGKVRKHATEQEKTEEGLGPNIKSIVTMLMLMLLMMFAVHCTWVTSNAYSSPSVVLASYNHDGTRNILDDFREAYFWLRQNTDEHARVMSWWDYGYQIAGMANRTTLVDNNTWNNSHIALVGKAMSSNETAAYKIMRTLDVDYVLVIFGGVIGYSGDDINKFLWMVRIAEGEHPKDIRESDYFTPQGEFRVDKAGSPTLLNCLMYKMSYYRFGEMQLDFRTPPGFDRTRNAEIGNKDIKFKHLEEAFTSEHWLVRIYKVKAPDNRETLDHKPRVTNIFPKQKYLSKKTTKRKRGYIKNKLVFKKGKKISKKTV
# UniProt P56962: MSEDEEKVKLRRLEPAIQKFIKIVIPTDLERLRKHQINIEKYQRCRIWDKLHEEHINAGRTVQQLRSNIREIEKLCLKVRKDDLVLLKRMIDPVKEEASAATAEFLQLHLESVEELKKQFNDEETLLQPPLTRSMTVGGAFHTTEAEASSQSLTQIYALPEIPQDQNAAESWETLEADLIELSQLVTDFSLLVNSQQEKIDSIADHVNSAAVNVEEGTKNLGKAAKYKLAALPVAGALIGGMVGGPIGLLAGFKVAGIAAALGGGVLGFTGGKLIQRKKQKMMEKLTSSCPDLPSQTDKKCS
# UniProt Q7RTN6: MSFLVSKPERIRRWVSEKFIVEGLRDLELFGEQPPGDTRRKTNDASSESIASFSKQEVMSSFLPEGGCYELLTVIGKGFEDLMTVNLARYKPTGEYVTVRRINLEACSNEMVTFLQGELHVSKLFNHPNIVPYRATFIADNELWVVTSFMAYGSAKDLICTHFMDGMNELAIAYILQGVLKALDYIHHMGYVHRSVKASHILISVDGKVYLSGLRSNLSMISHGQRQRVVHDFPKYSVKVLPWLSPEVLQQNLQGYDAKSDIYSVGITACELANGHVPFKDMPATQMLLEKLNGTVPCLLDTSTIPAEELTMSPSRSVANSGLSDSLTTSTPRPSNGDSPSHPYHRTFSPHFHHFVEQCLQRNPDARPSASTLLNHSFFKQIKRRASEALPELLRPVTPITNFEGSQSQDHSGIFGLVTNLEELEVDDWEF
# UniProt P55854, whole entry, looked up: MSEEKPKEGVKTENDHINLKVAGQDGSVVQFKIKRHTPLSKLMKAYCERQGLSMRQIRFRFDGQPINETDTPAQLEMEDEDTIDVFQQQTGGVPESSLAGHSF
# UniProt Q9ULQ0: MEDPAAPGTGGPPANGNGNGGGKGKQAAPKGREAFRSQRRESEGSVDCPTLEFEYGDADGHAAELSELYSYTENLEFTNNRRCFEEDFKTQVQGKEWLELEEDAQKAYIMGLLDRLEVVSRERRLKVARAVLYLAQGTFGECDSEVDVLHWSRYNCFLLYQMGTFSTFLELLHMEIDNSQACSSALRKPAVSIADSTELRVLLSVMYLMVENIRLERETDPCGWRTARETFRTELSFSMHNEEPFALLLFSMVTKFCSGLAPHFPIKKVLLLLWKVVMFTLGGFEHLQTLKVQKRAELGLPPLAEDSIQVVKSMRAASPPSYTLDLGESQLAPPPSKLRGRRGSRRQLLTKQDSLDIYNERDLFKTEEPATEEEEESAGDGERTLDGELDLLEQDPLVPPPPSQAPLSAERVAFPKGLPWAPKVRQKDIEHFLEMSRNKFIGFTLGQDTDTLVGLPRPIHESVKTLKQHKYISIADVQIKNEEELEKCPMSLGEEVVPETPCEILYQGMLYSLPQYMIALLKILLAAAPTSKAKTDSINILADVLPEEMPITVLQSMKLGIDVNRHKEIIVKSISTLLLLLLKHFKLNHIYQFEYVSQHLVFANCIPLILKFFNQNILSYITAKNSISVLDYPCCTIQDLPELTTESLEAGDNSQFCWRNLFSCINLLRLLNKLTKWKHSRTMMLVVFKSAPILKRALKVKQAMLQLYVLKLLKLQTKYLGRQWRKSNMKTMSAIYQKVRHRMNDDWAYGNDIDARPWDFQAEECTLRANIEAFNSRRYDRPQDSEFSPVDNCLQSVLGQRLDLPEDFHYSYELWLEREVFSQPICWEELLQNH
# Assays:
# Assay in all cases: log2 fold change, soluble protein after heating vs DMSO (PISA); higher = thermal stabilisation; K562 lysate, 10 uM; active = over 0.2 and 3.5 SD of the protein, either way, in both replicates (recomputed)
# [1] = compound: CN1CC[C@H](c2c(O)cc(O)c3c(=O)cc(-c4ccccc4Cl)oc23)[C@H](O)C1 [alvocidib]
# In short: (§1)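 Pellets of K562 cells were dounce-homogenised in PBS pH 7.4 with 1 mM MgCl2, and the crude extract was held at 1 mg/mL protein for a 30 min treatment with 10 μM compound. Aliquots were heated for 3 min over 48°C-58°C and pooled before NP-40 was added to 0.5% at 4°C. The supernatant from 21,000xg for 90 min was quantified by TMTpro 16plex LC-MS/MS with channel sums equalised. Values are reported from duplicates as log-two fold change in thermal stability relative to solvent controls.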
# [2] = compound: CN1CCc2c(c3ccccc3n2Cc2ccc(C(=O)NO)cc2)C1 [Tubastatin A]
# In short: as §1
# [3] = compound: CNC(=O)C1=CC=CC=C1NC2=NC(=NC=C2Cl)NC3=C(C=C(C=C3)N4CCOCC4)OC
# In short: as §1
# [4] = compound: CNC(=O)c1ccc(Nc2ncc(C(F)(F)F)c(NCc3nccnc3N(C)S(C)(=O)=O)n2)cc1 [defactinib]
# In short: as §1
# [5] = compound: CNc1nc(-c2ccc3c(N)n[nH]c3c2)cc(N2C[C@@H](C(=O)NC3CCCCC3)CC[C@H]2C)n1
# In short: as §1
# [6] = compound: COC(=O)N[C@@H](C)CNc1nccc(-c2cn(C(C)C)nc2-c2cc(Cl)cc(NS(C)(=O)=O)c2F)n1 [encorafenib]
# In short: as §1
# [7] = compound: COC(=O)[C@H](CCSC)NC(=O)C1=C(C=C(C=C1)NC[C@H](CS)N)C2=CC=CC=C2
# In short: as §1
# [8] = compound: COc1cc(Nc2ncc3c(n2)-c2ccc(Cl)cc2C(c2c(F)cccc2OC)=NC3)ccc1C(=O)O [alisertib]
# In short: as §1
# [9] = compound: COc1cc2nc(-c3cc(F)ccc3O)nc(N[C@@H]3CNC[C@H]3C(C)(C)O)c2cc1OC
# In short: as §1
# [10] = compound: COc1cc2ncnc(Nc3ccc(F)c(Cl)c3)c2cc1OCCCN1CCOCC1 [gefitinib]
# In short: as §1
# [11] = compound: CS(=O)(=O)CCNCc1ccc(-c2ccc3ncnc(Nc4ccc(OCc5cccc(F)c5)c(Cl)c4)c3c2)o1 [lapatinib]
# In short: as §1
# [12] = compound: CS(=O)(=O)N1CCN(Cc2cc3nc(-c4cccc5[nH]ncc45)nc(N4CCOCC4)c3s2)CC1 [pictilisib]
# In short: as §1
# [13] = compound: C[C@@H](Oc1cc(-c2cnn(C3CCNCC3)c2)cnc1N)c1c(Cl)ccc(F)c1Cl [crizotinib]
# In short: as §1
# [14] = compound: C[C@H](C1=CC=C(C=C1)C(=O)NC2=C3C=CNC3=NC=C2)N
# In short: as §1
# [15] = compound: C[C@H](Nc1ncnc2nc[nH]c12)c1cc2cccc(Cl)c2c(=O)n1-c1ccccc1 [duvelisib]
# In short: as §1
# [16] = compound: Cc1cc(Nc2cc(CN3CCOCC3)c3nc(C)c(Cc4ccc(Cl)cc4F)n3n2)n[nH]1 [gandotinib]
# In short: as §1
# [17] = compound: Cc1cc(Nc2cc(N3CCN(C)CC3)nc(Sc3ccc(NC(=O)C4CC4)cc3)n2)n[nH]1 [tozasertib]
# In short: as §1
# [18] = compound: Cc1ccc(-n2nc(C(C)(C)C)cc2NC(=O)Nc2ccc(OCCN3CCOCC3)c3ccccc23)cc1 [doramapimod]
# In short: as §1
# [19] = compound: Cc1ccc(NC(=O)c2ccc(CN3CC[C@H](N(C)C)C3)c(C(F)(F)F)c2)cc1Nc1nccc(-c2cncnc2)n1 [bafetinib]
# In short: as §1
# [20] = compound: Cc1cccc(CC(=O)N2CCc3c2ccc(-c2cn(C)c4ncnc(N)c24)c3F)n1
# In short: as §1
Target,log2 fold change [1],log2 fold change [2],log2 fold change [3],log2 fold change [4],log2 fold change [5],log2 fold change [6],log2 fold change [7],log2 fold change [8],log2 fold change [9],log2 fold change [10],log2 fold change [11],log2 fold change [12],log2 fold change [13],log2 fold change [14],log2 fold change [15],log2 fold change [16],log2 fold change [17],log2 fold change [18],log2 fold change [19],log2 fold change [20]
SYAP1 (UniProt Q96A49),inactive: -0.045,inactive: 0.072,inactive: 0.068,inactive: 0.036,inactive: 0.118,inactive: 0.165,inactive: -0.024,inactive: 0.035,inactive: 0.029,inactive: 0.019,inactive: 0.141,inactive: 0.015,inactive: 0.038,inactive: 0.052,inactive: -0.001,inactive: 0.153,inactive: 0.001,inactive: 0.161,inactive: 0.006,inactive: -0.102
SWAP70 (UniProt Q9UH65),inactive: -0.079,inactive: -0.007,inactive: 0.019,inactive: -0.011,inactive: -0.024,inactive: 0.011,inactive: 0.003,inactive: 0.019,inactive: 0.027,inactive: 0.026,inactive: 0.007,inactive: 0,inactive: 0.044,inactive: -0.158,inactive: 0.023,inactive: 0.074,inactive: 0.011,inactive: -0.004,inactive: 0.004,inactive: 0.083
TADA1 (UniProt Q96BN2),inactive: -0.02,inactive: -0.106,inactive: 0.005,inactive: -0.021,inactive: 0.062,inactive: 0.044,inactive: 0.002,inactive: 0.018,inactive: 0.106,inactive: -0.009,inactive: 0.024,inactive: -0.066,inactive: -0.208,inactive: -0.013,inactive: 0.164,inactive: -0.006,inactive: -0.016,inactive: 0.001,inactive: -0.002,inactive: 0.081
SYNE2 isoform 2 (UniProt Q8WXH0),inactive: -0.415,inactive: 0.143,inactive: -0.117,inactive: -0.139,inactive: -0.003,inactive: -0.036,inactive: 0.004,inactive: 0.037,inactive: 0.034,inactive: -0.059,inactive: -0.082,inactive: -0.103,inactive: 0.058,active: -0.93,inactive: 0.073,inactive: 0.296,inactive: -0.003,inactive: 0.183,inactive: -0.194,inactive: 0.397
STOM (UniProt P27105),inactive: 0.003,inactive: 0.033,inactive: 0.031,inactive: 0.023,inactive: -0.118,inactive: 0.014,inactive: -0.021,inactive: -0.021,inactive: 0.029,inactive: 0.027,inactive: -0.023,inactive: -0.027,inactive: 0.036,inactive: -0.053,inactive: 0.037,inactive: 0.03,inactive: 0.02,inactive: 0.002,inactive: -0.011,inactive: 0.013
TAB1 (UniProt Q15750),inactive: 0,inactive: -0.005,inactive: 0.024,inactive: -0.003,inactive: 0,inactive: -0.007,inactive: 0.053,inactive: -0.069,inactive: -0.003,inactive: -0.007,inactive: -0.013,inactive: 0.011,inactive: 0.01,inactive: 0.007,inactive: -0.026,inactive: -0.015,inactive: 0.003,inactive: 0.016,inactive: -0.044,inactive: -0.001
STRAP isoform 2 (UniProt Q9Y3F4),inactive: 0.018,inactive: 0.014,inactive: -0.01,inactive: -0.008,inactive: 0.011,inactive: -0.004,inactive: 0.041,inactive: 0.014,inactive: 0,inactive: -0.028,inactive: -0.021,inactive: -0.005,inactive: 0.019,inactive: 0.074,inactive: 0.014,inactive: -0.022,inactive: -0.015,inactive: -0.044,inactive: 0.05,inactive: -0.047
STX6 (UniProt O43752),inactive: 0.029,inactive: 0.049,inactive: -0.023,inactive: 0,inactive: 0.022,inactive: 0.037,inactive: -0.043,inactive: -0.02,inactive: 0.016,inactive: -0.002,inactive: 0.043,inactive: -0.005,inactive: -0.044,inactive: -0.025,inactive: -0.025,inactive: 0.091,inactive: 0.015,inactive: 0.01,inactive: -0.016,inactive: 0
SUGT1 (UniProt Q9Y2Z0),inactive: 0.018,inactive: 0.026,inactive: -0.009,inactive: -0.021,inactive: 0.026,inactive: -0.012,inactive: -0.05,inactive: -0.03,inactive: -0.005,inactive: -0.018,inactive: 0.026,inactive: -0.008,inactive: 0.049,inactive: 0.16,inactive: 0.005,inactive: -0.024,inactive: -0.015,inactive: -0.011,inactive: 0.032,inactive: -0.094
STX4 (UniProt Q12846),inactive: -0.032,inactive: 0.013,inactive: -0.057,inactive: 0.01,inactive: -0.012,inactive: -0.052,inactive: -0.014,inactive: -0.029,inactive: -0.009,inactive: -0.01,inactive: -0.006,inactive: -0.004,inactive: 0.025,inactive: 0.091,inactive: 0.009,inactive: -0.019,inactive: 0.071,inactive: -0.011,inactive: 0.038,inactive: -0.041
STT3B (UniProt Q8TCJ2),inactive: -0.142,inactive: -0.01,inactive: 0.002,inactive: 0.019,inactive: 0.004,inactive: 0.014,inactive: -0.022,inactive: -0.013,inactive: -0.032,inactive: 0.052,inactive: 0.01,inactive: 0.026,inactive: -0.044,inactive: -0.112,inactive: -0.008,inactive: 0.152,inactive: -0.007,inactive: 0.06,inactive: -0.014,inactive: 0.128
STX17 (UniProt P56962),inactive: 0.018,inactive: 0.045,inactive: 0.002,inactive: -0.025,inactive: 0.333,inactive: 0.019,inactive: -0.013,inactive: 0.057,inactive: 0.047,inactive: -0.034,inactive: -0.013,inactive: -0.016,inactive: -0.031,inactive: 0.025,inactive: 0.007,inactive: -0.066,inactive: 0.001,inactive: 0.014,inactive: -0.071,inactive: 0.062
SYNE1 (UniProt Q8NF91),inactive: 0.024,inactive: 0.151,inactive: 0.028,inactive: -0.036,inactive: 0.543,inactive: -0.12,inactive: 0.077,inactive: -0.058,inactive: 0.083,inactive: -0.112,inactive: -0.032,inactive: -0.058,inactive: -0.176,inactive: -0.083,inactive: -0.039,inactive: 0.359,inactive: -0.15,inactive: -0.001,inactive: 0.066,inactive: 0.212
STRADA (UniProt Q7RTN6),inactive: -0.026,inactive: -0.029,inactive: -0.056,inactive: -0.005,inactive: -0.007,inactive: 0.01,inactive: -0.054,inactive: -0.019,inactive: -0.023,inactive: 0.04,inactive: 0.03,inactive: 0.009,inactive: -0.004,inactive: 0.044,inactive: 0.012,inactive: 0.003,inactive: -0.031,inactive: 0.047,inactive: 0.01,inactive: -0.076
SUMO3 isoform 2 (UniProt P55854),inactive: 0.009,inactive: 0.129,inactive: 0.018,inactive: -0.032,inactive: 0.038,inactive: -0.003,inactive: -0.051,inactive: -0.026,inactive: 0.017,inactive: -0.113,inactive: -0.013,inactive: -0.012,inactive: 0.026,inactive: -0.034,inactive: 0.056,inactive: 0.005,inactive: -0.057,inactive: -0.077,inactive: 0.016,inactive: 0
STRIP2 (UniProt Q9ULQ0),inactive: 0.001,inactive: -0.021,inactive: -0.004,inactive: -0.009,inactive: -0.025,inactive: -0.026,inactive: 0.075,inactive: 0.019,inactive: -0.023,inactive: -0.028,inactive: 0.036,inactive: -0.015,inactive: -0.042,inactive: 0.052,inactive: 0.066,inactive: -0.059,inactive: -0.008,inactive: -0.002,inactive: -0.025,inactive: -0.03

# Just log2 fold change [17], log2 fold change [2] and log2 fold change [20], for some of the entries so far:
Target	log2 fold change [17]	log2 fold change [2]	log2 fold change [20]
SYNE2 isoform 2 (UniProt Q8WXH0)	inactive: -0.003	inactive: 0.143	inactive: 0.397
SUGT1 (UniProt Q9Y2Z0)	inactive: -0.015	inactive: 0.026	inactive: -0.094
